Results are given in words; binding and its absence hold for the method and conditions named. Some binding calls cover weakened binding; strength is not graded here. Where a sequence is shown, tags or fusion partners need not be part of it. Values belong to the binder of their own block, whether it stands above or below them.
Columns and labels:
[1] = target: αvβ3 integrin on K562-αvβ3 cells (K562 leukemia cells transfected with αvβ3 integrin) (UniProt P06756); assay: binding to K562 cells transfected with αvβ3 integrin
soluble αvβ3 integrin [2] = target: soluble αvβ3 integrin (UniProt P06756); assay: yeast surface display, 20, 50 or 100 nM αvβ3 integrin
soluble αvβ3 integrin [3] = target: soluble αvβ3 integrin (UniProt P06756); assay: yeast surface display of the binder, soluble αvβ3 integrin at 0.5 nM and 5 nM, flow cytometry
soluble αvβ3 integrin [4] = target: soluble αvβ3 integrin (UniProt P06756); assay: yeast surface display, 0.5 nM and 5 nM soluble αvβ3 integrin
[5] = target: αvβ3 integrin on K562-αvβ3 cells (K562 leukemia cells transfected with αvβ3 integrin) (UniProt P06756); assay: binding titration of the soluble fusion protein on K562-αvβ3 cells, flow cytometry; the cells express αvβ3 integrin and also Met receptor
[6] = target: αvβ3 integrin on K562-αvβ3 cells (K562 leukemia cells transfected with αvβ3 integrin) (UniProt P06756); assay: dual receptor direct binding assay, flow cytometry on K562-αvβ3 cells
soluble Met receptor [7] = target: soluble Met receptor (UniProt P08581); assay: yeast surface display, 0.5 nM and 5 nM soluble Met
soluble Met receptor [8] = target: soluble Met receptor (UniProt P08581); assay: yeast surface display of the binder, soluble Met at 0.5 nM and 5 nM, flow cytometry
soluble αvβ3 integrin [9] = target: soluble αvβ3 integrin (UniProt P06756); assay: yeast surface display, soluble αvβ3 integrin
soluble αvβ3 integrin [10] = target: soluble αvβ3 integrin (UniProt P06756); assay: yeast surface display, soluble αvβ3 integrin at 100 and 200 nM, alone or with 100 nM soluble Gas6, flow cytometry
soluble αvβ3 integrin [11] = target: soluble αvβ3 integrin (UniProt P06756); assay: yeast surface display
soluble αvβ3 integrin [12] = target: soluble αvβ3 integrin (UniProt P06756); assay: yeast surface display, 100 or 200 nM αvβ3 integrin in the presence of 100 nM Gas6
[13] = target: αvβ3 integrin on K562-αvβ3 cells (K562 leukemia cells transfected with αvβ3 integrin) (UniProt P06756); assay: binding to cells transfected to overexpress the αvβ3 integrin

Sequences of proteins named here, by UniProt entry; tags and fusion partners are left off. A change or cut given only in a name is not applied to a line headed by its entry. Residues count along the entry.
UniProt P06756: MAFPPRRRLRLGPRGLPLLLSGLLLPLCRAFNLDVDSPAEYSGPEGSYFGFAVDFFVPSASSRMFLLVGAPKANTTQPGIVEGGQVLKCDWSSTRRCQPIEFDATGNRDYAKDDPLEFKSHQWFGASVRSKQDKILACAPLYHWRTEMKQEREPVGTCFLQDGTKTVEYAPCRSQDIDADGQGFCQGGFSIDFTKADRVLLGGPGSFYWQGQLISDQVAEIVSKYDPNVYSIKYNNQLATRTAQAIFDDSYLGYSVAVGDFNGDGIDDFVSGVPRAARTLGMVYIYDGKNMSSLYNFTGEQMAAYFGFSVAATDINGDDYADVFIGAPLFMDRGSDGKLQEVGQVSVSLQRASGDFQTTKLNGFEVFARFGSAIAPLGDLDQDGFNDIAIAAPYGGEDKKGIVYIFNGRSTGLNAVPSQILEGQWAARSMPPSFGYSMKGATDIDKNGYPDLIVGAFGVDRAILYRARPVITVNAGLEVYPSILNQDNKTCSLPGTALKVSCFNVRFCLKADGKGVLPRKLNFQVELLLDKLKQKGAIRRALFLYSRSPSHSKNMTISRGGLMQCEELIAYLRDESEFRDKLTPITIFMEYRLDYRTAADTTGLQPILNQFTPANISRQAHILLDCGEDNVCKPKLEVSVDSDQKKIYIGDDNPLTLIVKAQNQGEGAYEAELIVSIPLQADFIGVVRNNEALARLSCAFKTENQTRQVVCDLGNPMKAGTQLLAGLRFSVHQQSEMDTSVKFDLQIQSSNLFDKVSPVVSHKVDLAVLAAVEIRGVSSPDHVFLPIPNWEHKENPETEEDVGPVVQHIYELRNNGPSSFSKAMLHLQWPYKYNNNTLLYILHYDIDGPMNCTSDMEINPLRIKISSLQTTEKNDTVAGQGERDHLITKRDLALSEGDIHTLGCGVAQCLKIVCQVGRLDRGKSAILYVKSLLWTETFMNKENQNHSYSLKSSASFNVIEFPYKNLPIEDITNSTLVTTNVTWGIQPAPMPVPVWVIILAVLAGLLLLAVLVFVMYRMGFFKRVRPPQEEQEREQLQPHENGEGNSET
UniProt P08581, residues 25-932: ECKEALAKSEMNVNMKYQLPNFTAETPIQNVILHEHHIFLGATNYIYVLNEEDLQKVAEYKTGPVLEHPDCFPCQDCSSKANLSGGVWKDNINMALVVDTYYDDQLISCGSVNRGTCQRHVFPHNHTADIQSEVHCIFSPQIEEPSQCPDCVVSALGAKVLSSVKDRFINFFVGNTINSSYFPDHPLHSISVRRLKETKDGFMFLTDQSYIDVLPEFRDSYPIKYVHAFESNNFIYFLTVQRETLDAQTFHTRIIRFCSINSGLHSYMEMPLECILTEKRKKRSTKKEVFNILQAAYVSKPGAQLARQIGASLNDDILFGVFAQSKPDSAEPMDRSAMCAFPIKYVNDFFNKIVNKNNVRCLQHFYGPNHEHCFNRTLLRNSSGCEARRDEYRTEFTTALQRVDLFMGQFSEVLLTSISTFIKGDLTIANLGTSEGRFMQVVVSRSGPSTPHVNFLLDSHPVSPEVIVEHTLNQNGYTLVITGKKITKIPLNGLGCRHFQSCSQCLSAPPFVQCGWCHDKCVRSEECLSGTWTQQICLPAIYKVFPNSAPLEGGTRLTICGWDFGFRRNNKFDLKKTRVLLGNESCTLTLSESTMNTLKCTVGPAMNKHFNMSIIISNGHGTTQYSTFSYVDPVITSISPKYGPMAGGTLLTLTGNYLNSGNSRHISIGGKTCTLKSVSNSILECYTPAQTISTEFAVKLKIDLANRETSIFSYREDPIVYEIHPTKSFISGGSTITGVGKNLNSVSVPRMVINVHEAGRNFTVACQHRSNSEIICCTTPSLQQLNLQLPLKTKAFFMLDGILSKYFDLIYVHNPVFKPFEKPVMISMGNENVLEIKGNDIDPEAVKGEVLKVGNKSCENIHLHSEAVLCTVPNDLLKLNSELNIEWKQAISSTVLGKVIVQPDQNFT

binding [1]: binds
B1: knottin 2.5F-Fc (EETI 2.5F fused to the Fc domain of mouse Ig2a) (Fc fusion)
chain: GCPRPRGDNPPLTCKQDSDCLAGCVCGPNGFCGEPRGPTIKPCPPCKCPAPNLLGGPSVFIFPPKIKDVLMISLSPIVTCVVVDVSEDDPDVQISWFVNNVEVHTAQTQTHREDYNSTLRVVSALPIQHQDWMSGKEFKCKVNNKDLPAPIERTISKPKGSVRAPQVYVLPPPEEEMTKKQVTLTCMVTDFMPEDIYVEWTNNGKTELNYKNTEPVLDSDGSYFMYSKLRVEKKNWVERNSYSCSVVHEGLHNHHTTKSFSRTPGK

binding [1]: binds
B2: knottin 2.5D-Fc (EETI 2.5D fused to the Fc domain of mouse Ig2a) (Fc fusion)
chain: GCPQGRGDWAPTSCKQDSDCRAGCVCGPNGFCGEPRGPTIKPCPPCKCPAPNLLGGPSVFIFPPKIKDVLMISLSPIVTCVVVDVSEDDPDVQISWFVNNVEVHTAQTQTHREDYNSTLRVVSALPIQHQDWMSGKEFKCKVNNKDLPAPIERTISKPKGSVRAPQVYVLPPPEEEMTKKQVTLTCMVTDFMPEDIYVEWTNNGKTELNYKNTEPVLDSDGSYFMYSKLRVEKKNWVERNSYSCSVVHEGLHNHHTTKSFSRTPGK

binding (soluble αvβ3 integrin [2]): binds
Binder: GCPQGRGDWAPTSCKQDSDCRAGCVCGPNGFCG (designed binder) [EETI-II mutant 2.5D (yeast-displayed)]

binding (soluble αvβ3 integrin [3]): binds | binding (soluble αvβ3 integrin [4]): binds
Binder: GCVRLHESCLGQQVPCCDPAATCYCSGRGDNDLVCYCR (designed binder) [AgRP mutant 7A]

binding [5]: binds
B3: AgRP7A-Aras4 fusion protein (soluble, FLAG and His tagged) (designed binder)
chain: DYKDDDDKPRGCVRLHESCLGQQVPCCDPAATCYCSGRGDNDLVCYCRYAEGQGKRRNTIHEFKKSAKTTLIKIDPALRIKTEKANTADQCANRCTRSKGLPFTCKAFVFDKARKRCLWFPFNSMSSGVKKEFGHEFDLYENKAYIRDCIIGRGRNYRGTVSITKSGIKCQPWSAMIPHEHSFLPSSYRGEDLRENYCRNPRGEEGGPWCYTSDPEVRYEVCDIPQCSEVETRHHHHHH

binding [6]: binds
B4: AgRp7A-M2.2(D127A) fusion protein (designed binder)
chain: DYKDDDDKPRGCVRLHESCLGQQVPCCDPAATCYCSGRGDNDLVCYCRYAEGQRKRRNTIHEFKKSAKTTLIKIDPALKIKTEKVNTADQCANRCTRNKGLPFTCKAFVFDKARKRCLWFPFNSMSSGVKKEFGHEFDLYENKDYIRACIIGNGRSYRGTVSITKSGIKCQPWSSMIPHEHSFLPSSYRGEDLRENYCRNPRGEEGGPWCFTSDPEVRYEVCDIPQCSEVETRHHHHHH

binding [6]: binds
B5: AgRp7A-M2.2 fusion protein (designed binder)
chain: DYKDDDDKPRGCVRLHESCLGQQVPCCDPAATCYCSGRGDNDLVCYCRYAEGQRKRRNTIHEFKKSAKTTLIKIDPALKIKTEKVNTADQCANRCTRNKGLPFTCKAFVFDKARKRCLWFPFNSMSSGVKKEFGHEFDLYENKDYIRDCIIGNGRSYRGTVSITKSGIKCQPWSSMIPHEHSFLPSSYRGEDLRENYCRNPRGEEGGPWCFTSDPEVRYEVCDIPQCSEVETRHHHHHH

binding [6]: binds
B6: EETI2.5F-M2.2 fusion protein (designed binder)
chain: DYKDDDDKPRGCPRPRGDNPPLTCSQDSDCLAGCVCGPNGFCGYAEGQRKRRNTIHEFKKSAKTTLIKIDPALKIKTEKVNTADQCANRCTRNKGLPFTCKAFVFDKARKRCLWFPFNSMSSGVKKEFGHEFDLYENKDYIRDCIIGNGRSYRGTVSITKSGIKCQPWSSMIPHEHSFLPSSYRGEDLRENYCRNPRGEEGGPWCFTSDPEVRYEVCDIPQCSEVETRHHHHHH

binding [6]: binds
B7: EETI2.5F-M2.2(D127A) fusion protein (designed binder)
chain: DYKDDDDKPRGCPRPRGDNPPLTCSQDSDCLAGCVCGPNGFCGYAEGQRKRRNTIHEFKKSAKTTLIKIDPALKIKTEKVNTADQCANRCTRNKGLPFTCKAFVFDKARKRCLWFPFNSMSSGVKKEFGHEFDLYENKDYIRACIIGNGRSYRGTVSITKSGIKCQPWSSMIPHEHSFLPSSYRGEDLRENYCRNPRGEEGGPWCFTSDPEVRYEVCDIPQCSEVETRHHHHHH

binding (soluble αvβ3 integrin [3]): binds | binding (soluble αvβ3 integrin [4]): binds | binding (soluble Met receptor [7]): binds | binding (soluble Met receptor [8]): binds
B8: AgRP7A-Aras4 fusion protein (yeast surface displayed) (designed binder)
chain: GCVRLHESCLGQQVPCCDPAATCYCSGRGDNDLVCYCRYAEGQGKRRNTIHEFKKSAKTTLIKIDPALRIKTEKANTADQCANRCTRSKGLPFTCKAFVFDKARKRCLWFPFNSMSSGVKKEFGHEFDLYENKAYIRDCIIGRGRNYRGTVSITKSGIKCQPWSAMIPHEHSFLPSSYRGEDLRENYCRNPRGEEGGPWCYTSDPEVRYEVCDIPQCSEVE

binding (soluble αvβ3 integrin [9]): binds | binding (soluble αvβ3 integrin [10]): binds | binding (soluble αvβ3 integrin [2]): binds | binding (soluble αvβ3 integrin [11]): binds | binding (soluble αvβ3 integrin [12]): binds
B9: EETI 2.5D-Axl fusion protein (yeast-displayed) (designed binder)
chain: GCPQGRGDWAPTSCSQDSDCLAGCVCGPNGFCGSRGTQAEESPFVGNPGNITGARGLTGTLRCQLQVQGEPPEVHWLRDGQILELADSTQTQVPLGEDEQDDWIVVSQLRITSLQLSDTGQYQCLVFLGHQTFVSQPGYVGLEGLP

binding [13]: binds
B10: EETI 2.5D-Axl fusion protein (soluble, produced in P. pastoris) (designed binder)
chain: GCPQGRGDWAPTSCSQDSDCLAGCVCGPNGFCGSRGTQAEESPFVGNPGNITGARGLTGTLRCQLQVQGEPPEVHWLRDGQILELADSTQTQVPLGEDEQDDWIVVSQLRITSLQLSDTGQYQCLVFLGHQTFVSQPGYVGLEGLP
